Data published in PubChem BioAssay AID540256 (National Center for Advancing Translational Sciences (NCATS), 2011).
Several values for one entry are separate records, joined by “and”; a condition that tells them apart may be missing. Identical values can stand only once. The campaign covered roughly 300,000 compounds. About 3,700 (1.2%) were called active. The inconclusive results got no clear call from the source; some entries with a clear call stand among them for comparison. Calls follow the shape of the full dose curve; tested in HEK293 cells. Potencies of inconclusive entries are doubtful fits and often do not repeat.

Assay: qHTS for Inhibitors of binding or entry into cells for Lassa Virus; also: nearly all actives have a fitted effect of over 50% in size
Details: Lassa virus pseudotype entry inhibition, cell reporter; series mostly up to 37.9 µM
Potency is read from the fitted curve at half-maximal effect.

Structure (SMILES)	Potency
Cc1nn(Cc2c(F)c(F)c(F)c(F)c2F)c(C)c1NC(=O)c1ccc(COc2ccc(Cl)cc2Cl)o1	inconclusive: 14.1 µM [inhibitor, single point]
CC(=O)ON1C(C)(C)Cc2noc(N)c2C1(C)C	inactive
CN(C)C(=O)c1coc2nc3ccccc3nc12	inconclusive: 22.4 µM [inhibitor, single point]
Cc1ccc(NS(=O)(=O)c2cccc(C(=O)NCCCN3CCCC3=O)c2)cc1	inactive
Oc1ccc(Br)cc1/C=N/N1CCN(Cc2ccccc2)CC1	inactive
O=C(Cn1c(SCC(=O)Nc2ccc(F)cc2)nc2ccccc21)NCc1ccc(Cl)cc1	inconclusive: 35.5 µM [inhibitor, single point]
COc1cccc(-c2csc3nnc(SCC(=O)NCc4cccs4)n23)c1	inconclusive: 0.517 µM [inhibitor, full curve]
Cc1ccc(CSc2cn(CCNC(=O)c3cccs3)c3ccccc23)cc1	inconclusive: 2 µM [inhibitor, single point]
COc1ccccc1N1CCN(Cc2ccc(O)c3ncccc23)CC1	active: 10.3 µM
O=C(Nc1ccc(F)c(Cl)c1)C1CCN(S(=O)(=O)c2ccc3c(c2)CCCN3C(=O)C2CCC2)CC1	inconclusive: 12.6 µM [inhibitor, single point]
O=C(NCCN1C(=O)S/C(=C\c2ccccc2F)C1=O)C1=COCCO1	inconclusive: 35.5 µM [inhibitor, single point]
CCOC(=O)C1=C(C)NC(=S)NC1c1ccc(OCC(=O)N2CCCCCC2)c(OC)c1 (centres undefined)	inconclusive: 35.5 µM [inhibitor, single point]
Cc1ccccc1C(=O)N1CCC(n2nccc2NC(=O)C2CC2)CC1	inconclusive: 6.31 µM [activator, partial curve, poor fit]
CCN(CC)CCCOC(=O)C(OC(C)C)(c1ccccc1)c1ccccc1	active: 16.4 µM
Cc1c(NC(=S)Nc2ccccc2C(F)(F)F)cccc1[N+](=O)[O-]	inconclusive: 0.708 µM [inhibitor, partial curve, poor fit]
C=CCOc1ccccc1CN1CCC(CO)(CCOc2ccccc2)CC1	inconclusive: 31.6 µM [inhibitor, partial curve, poor fit]
Cc1n[nH]c(=O)nc1NCc1ccco1	inactive
CC(C)c1nn2c(=O)cc(CSc3ccccc3NC(=O)c3ccccc3F)nc2s1	inconclusive: 7.08 µM [inhibitor, full curve, poor fit]
O=C(NCc1ccccc1Cl)c1ccc(NC(=O)N2CCSc3ccccc32)cc1	inactive
CC(C)OC(=O)CSc1nc2c(c(C3CC=CCC3)c1C#N)CCC2 (centres undefined)	inconclusive: 32.6 µM [inhibitor, single point]
CC(=O)Nc1ccc2nc(NC(=O)c3ccc([N+](=O)[O-])o3)sc2c1	inconclusive: 11.2 µM [inhibitor, partial curve, poor fit]
COc1ccc(S(=O)(=O)N(CC(=O)Nc2ccc3c(c2)OCO3)c2ccc(C)cc2)cc1	inconclusive: 11.2 µM [inhibitor, partial curve, poor fit]
NC(N)=N/N=C/c1ccc2cccc(OCc3ccccc3)c2n1	inconclusive: 35.5 µM [inhibitor, single point]

Structure (SMILES)	Potency
O=C(N/N=C/c1cccs1)c1ccc(NC(=O)c2ccccc2Cl)cc1	inactive
COC(=O)[C@@]1(Cc2ccc(OC)cc2)[C@@H]2C(=CC(=O)[C@H]2CC(=O)C(=O)N2CCCC2)CN1C(=O)c1ccccc1	inconclusive: 29.1 µM [inhibitor, single point]
CCCCC(=O)Nc1ccccc1N1CCN(c2ccccc2)CC1	inactive
CCN(CC)c1nc(-c2ccccn2)nc(-c2ccccc2)c1C#N	inconclusive: 15.8 µM [inhibitor, single point]
Cc1ccc2cc(C#N)c(SCC(=O)NCC3CCCO3)nc2c1 (centres undefined)	inactive
CCn1c(CC(=O)Nc2ccc(OC)cc2)nnc1SCC(=O)N1CCOCC1	inactive
CC(OC(=O)Cn1cnc2c1c(=O)n(C)c(=O)n2C)C(=O)N(C)c1ccccc1 (centres undefined)	inconclusive: 5.62 µM [activator, partial curve, poor fit]
c1ccc(-c2cn3c4c(sc3n2)CCCC4)cc1	inconclusive: 4.61 µM [inhibitor, partial curve, poor fit] and inconclusive: 891 nM [inhibitor, full curve, poor fit]
C/C(=N\NC(=O)c1ccc2c(c1)OCO2)c1ccc2c(c1)OCO2	inconclusive: 35.5 µM [inhibitor, single point]
CCN(CC)C(=O)COc1ccc(-c2ccccc2)cc1	inconclusive: 10 µM [activator, partial curve]
COC(=O)c1ccc(Oc2nc3c(c(=O)n(C)c(=O)n3C)n2Cc2ccc(Cl)c(Cl)c2)cc1	inactive
CC1=C(C(=O)Nc2ccccc2)C(c2ccccn2)n2nc(SCc3ccccc3Cl)nc2N1 (centres undefined)	inactive
Cc1ccc(NC(=O)NC2CCN(S(=O)(=O)c3ccc(F)cc3)CC2)cc1	inconclusive: 20.6 µM [inhibitor, partial curve, poor fit]
CCOC(=O)CS(=O)(=O)c1nc(-c2ccccc2)cc(C(F)(F)F)n1	inconclusive: 10 µM [inhibitor, partial curve, poor fit]
COc1ccc(C(=O)N2CCc3cc(OC)c(OC)cc3C2c2ccc(OC)c(OC)c2)cc1OC (centres undefined)	inconclusive: 8.91 µM [inhibitor, partial curve]
Nc1nonc1-c1nc2ccccc2n1CC(=O)Nc1cccc(Cl)c1Cl	inconclusive: 35.5 µM [inhibitor, partial curve, poor fit]
Cc1cc(NCc2ccc(Cl)cc2)n2cnnc2n1	inactive
CCc1ccc(NS(=O)(=O)c2c(-c3ccccc3)csc2C(=O)OC)cc1	inconclusive: 0.316 µM [inhibitor, full curve, poor fit]
COc1ccc(-c2nc3c(c(=O)n(C)c(=O)n3C)n2CC2CC(c3ccccc3)=NO2)cc1OC (centres undefined)	inactive
Cc1cc(=O)[nH]c2[nH][nH]c(=O)c12	inconclusive: 1.12 µM [activator, single point]
CCOc1ccc(S(=O)(=O)NCc2ccncc2)cc1NC(=O)c1ccccc1	inconclusive: 3.16 µM [inhibitor, partial curve, poor fit]
COc1ccc2c(CC(=O)Nc3nccs3)coc2c1	inactive
O=C1NN(c2ccccc2)C(=O)/C1=C/c1coc2ccccc2c1=O	inconclusive: 0.58 µM [activator, full curve, poor fit]

Structure (SMILES)	Potency
CCOC(=O)c1cc(NC(=O)Nc2nc3ccccc3s2)c(C)nc1C	inactive
Cc1ccc(S(=O)(=O)n2nc(-c3ccco3)nc2NCc2ccc(N(C)C)cc2)cc1	inactive
CCc1ccc2oc(-c3ccc(C)c(NC(=O)c4ccc(C#N)cc4F)c3)nc2c1	inconclusive: 28.2 µM [activator, single point]
Cc1cccc(NS(=O)(=O)Cc2ccccc2)c1C	inactive
Cc1ccc(S(=O)(=O)CC(=O)N(CCCN(C)C)c2nc3ccc(C)cc3s2)cc1	inconclusive: 0.112 µM [activator, full curve, poor fit]
CCNS(=O)(=O)c1ccc(CCC(=O)N2CCCC2)cc1	inconclusive: 35.5 µM [activator, single point]
CCOC(=O)CSc1nc(C)c2cc(OC)ccc2n1	inconclusive: 35.5 µM [activator, single point]
CCn1cc2nc(SCc3cccc(C)c3)n(CCc3ccccc3)c(=O)c2n1	inconclusive: 11.2 µM [inhibitor, partial curve, poor fit]
CCC(=O)Nc1cccc(SC)c1	inactive
COc1ccc(OCc2nc(N)nc(Nc3ccccc3OC)n2)cc1	inconclusive: 25.9 µM [inhibitor, partial curve, poor fit]
CCOc1cc(/C=C2\C(=O)ON=C2C)ccc1OCc1ccccc1	inactive
C/C(=N\Nc1nc2ccccc2[nH]1)c1ccc(N2CCOCC2)cc1	active: 10 µM
CC(N)=NCCCC[C@@H](N)C(=O)O	inconclusive: 0.517 µM [inhibitor, full curve, poor fit]
Cc1[nH]c2ccccc2c1C(=O)CSc1nc2ccccc2c(=O)n1CCCN1CCOCC1	inactive
CCOC(=O)C1CCN(c2nnc(N3CCCC3=O)s2)CC1	inconclusive: 7.94 µM [activator, partial curve]
Cc1nn(-c2ccc(Br)cc2)c(=O)c2ccccc12	inconclusive: 22.4 µM [inhibitor, single point]
CCc1ccc2occ(CC(=O)Nc3sc4c(c3C(=O)NCCOC)CCCC4)c2c1	inconclusive: 6.31 µM [inhibitor, single point]
O=C(CSc1nc2ccccc2o1)Nc1ccc(Cl)cc1	inactive
C=CCn1c(C(C)C)nc2ccccc21	inactive
COC(=O)c1ccccc1NC(=S)N(Cc1ccc2c(c1)OCO2)Cc1cc2cccc(C)c2[nH]c1=O	inconclusive: 7.08 µM [inhibitor, partial curve, poor fit]
Cc1c(Cl)cccc1NC(=O)c1ccc(OCC(=O)NCc2ccccc2)cc1	inconclusive: 17.8 µM [inhibitor, single point]
CCc1ccccc1NC(=O)C1CCN(c2nc3ccccc3[nH]2)CC1	inactive
Cc1ccc(-n2nc(C)c(C(=O)NCCCN3CCN(c4cccc(Cl)c4)CC3)c2-n2cccc2)cc1	inconclusive: 17.8 µM [inhibitor, single point]
